These are yes or no findings as the source states them, for the method shown. Binding seen in cells or lysates may run through a third protein.
Assays:
[1] = biological target: EGFP-M2-APC (15-amino acid repeat region of APC, amino acids 959-1338, fused to EGFP) (UniProt P25054); assay: co-IP; anti-GFP pAb immunoprecipitates EGFP, EGFP-M2-APC or EGFP-M3-APC from transfected HCT116βw cells; immunoblots for endogenous topo IIα, topo IIβ, β-catenin; three independent experiments
[2] = biological target: EGFP-M3-APC (20-amino acid repeat region of APC, amino acids 1211-2075, fused to EGFP) (UniProt P25054); assay: as above

Protein sequences, listed by entry. Tags and fused reporters are not part of them. Chains listed by the source or under a name are the forms on record and can include a tag or linker. Residues count along the entry.
EGFP-M2-APC (15-amino acid repeat region of APC, amino acids 959-1338, fused to EGFP) (P25054, residues 959-1338): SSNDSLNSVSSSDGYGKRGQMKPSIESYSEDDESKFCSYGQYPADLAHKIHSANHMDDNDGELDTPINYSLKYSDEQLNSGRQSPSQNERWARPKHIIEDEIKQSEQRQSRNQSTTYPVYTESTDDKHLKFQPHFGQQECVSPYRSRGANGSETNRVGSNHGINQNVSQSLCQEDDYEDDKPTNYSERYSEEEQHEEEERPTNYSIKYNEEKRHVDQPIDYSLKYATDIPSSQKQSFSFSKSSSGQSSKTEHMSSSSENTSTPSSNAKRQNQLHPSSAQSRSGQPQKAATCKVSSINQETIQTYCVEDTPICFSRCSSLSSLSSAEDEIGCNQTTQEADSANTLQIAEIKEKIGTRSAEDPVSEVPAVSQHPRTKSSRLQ
EGFP-M3-APC (20-amino acid repeat region of APC, amino acids 1211-2075, fused to EGFP) (P25054, residues 1211-2075): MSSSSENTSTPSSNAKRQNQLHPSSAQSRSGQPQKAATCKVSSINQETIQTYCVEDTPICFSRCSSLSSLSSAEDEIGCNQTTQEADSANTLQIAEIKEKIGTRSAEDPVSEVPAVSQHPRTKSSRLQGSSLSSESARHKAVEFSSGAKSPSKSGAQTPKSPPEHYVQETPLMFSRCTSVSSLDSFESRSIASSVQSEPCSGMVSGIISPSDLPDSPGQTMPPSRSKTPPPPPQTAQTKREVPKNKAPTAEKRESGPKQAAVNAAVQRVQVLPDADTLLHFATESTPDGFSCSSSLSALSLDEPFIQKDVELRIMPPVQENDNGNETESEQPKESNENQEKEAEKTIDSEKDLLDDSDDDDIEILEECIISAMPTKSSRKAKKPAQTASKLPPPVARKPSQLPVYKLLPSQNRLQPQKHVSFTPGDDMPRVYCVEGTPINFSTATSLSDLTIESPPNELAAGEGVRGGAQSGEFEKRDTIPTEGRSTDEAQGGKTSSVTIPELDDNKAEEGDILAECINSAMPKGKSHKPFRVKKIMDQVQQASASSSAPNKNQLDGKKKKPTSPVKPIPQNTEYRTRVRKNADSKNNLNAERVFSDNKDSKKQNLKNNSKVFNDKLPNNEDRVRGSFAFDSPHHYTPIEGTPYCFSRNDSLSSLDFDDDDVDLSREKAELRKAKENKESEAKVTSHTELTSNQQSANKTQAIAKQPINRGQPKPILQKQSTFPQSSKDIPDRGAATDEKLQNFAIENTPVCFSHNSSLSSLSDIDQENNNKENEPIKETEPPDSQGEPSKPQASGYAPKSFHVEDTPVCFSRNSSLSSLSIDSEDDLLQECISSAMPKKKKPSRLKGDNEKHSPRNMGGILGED
UniProt Q02880: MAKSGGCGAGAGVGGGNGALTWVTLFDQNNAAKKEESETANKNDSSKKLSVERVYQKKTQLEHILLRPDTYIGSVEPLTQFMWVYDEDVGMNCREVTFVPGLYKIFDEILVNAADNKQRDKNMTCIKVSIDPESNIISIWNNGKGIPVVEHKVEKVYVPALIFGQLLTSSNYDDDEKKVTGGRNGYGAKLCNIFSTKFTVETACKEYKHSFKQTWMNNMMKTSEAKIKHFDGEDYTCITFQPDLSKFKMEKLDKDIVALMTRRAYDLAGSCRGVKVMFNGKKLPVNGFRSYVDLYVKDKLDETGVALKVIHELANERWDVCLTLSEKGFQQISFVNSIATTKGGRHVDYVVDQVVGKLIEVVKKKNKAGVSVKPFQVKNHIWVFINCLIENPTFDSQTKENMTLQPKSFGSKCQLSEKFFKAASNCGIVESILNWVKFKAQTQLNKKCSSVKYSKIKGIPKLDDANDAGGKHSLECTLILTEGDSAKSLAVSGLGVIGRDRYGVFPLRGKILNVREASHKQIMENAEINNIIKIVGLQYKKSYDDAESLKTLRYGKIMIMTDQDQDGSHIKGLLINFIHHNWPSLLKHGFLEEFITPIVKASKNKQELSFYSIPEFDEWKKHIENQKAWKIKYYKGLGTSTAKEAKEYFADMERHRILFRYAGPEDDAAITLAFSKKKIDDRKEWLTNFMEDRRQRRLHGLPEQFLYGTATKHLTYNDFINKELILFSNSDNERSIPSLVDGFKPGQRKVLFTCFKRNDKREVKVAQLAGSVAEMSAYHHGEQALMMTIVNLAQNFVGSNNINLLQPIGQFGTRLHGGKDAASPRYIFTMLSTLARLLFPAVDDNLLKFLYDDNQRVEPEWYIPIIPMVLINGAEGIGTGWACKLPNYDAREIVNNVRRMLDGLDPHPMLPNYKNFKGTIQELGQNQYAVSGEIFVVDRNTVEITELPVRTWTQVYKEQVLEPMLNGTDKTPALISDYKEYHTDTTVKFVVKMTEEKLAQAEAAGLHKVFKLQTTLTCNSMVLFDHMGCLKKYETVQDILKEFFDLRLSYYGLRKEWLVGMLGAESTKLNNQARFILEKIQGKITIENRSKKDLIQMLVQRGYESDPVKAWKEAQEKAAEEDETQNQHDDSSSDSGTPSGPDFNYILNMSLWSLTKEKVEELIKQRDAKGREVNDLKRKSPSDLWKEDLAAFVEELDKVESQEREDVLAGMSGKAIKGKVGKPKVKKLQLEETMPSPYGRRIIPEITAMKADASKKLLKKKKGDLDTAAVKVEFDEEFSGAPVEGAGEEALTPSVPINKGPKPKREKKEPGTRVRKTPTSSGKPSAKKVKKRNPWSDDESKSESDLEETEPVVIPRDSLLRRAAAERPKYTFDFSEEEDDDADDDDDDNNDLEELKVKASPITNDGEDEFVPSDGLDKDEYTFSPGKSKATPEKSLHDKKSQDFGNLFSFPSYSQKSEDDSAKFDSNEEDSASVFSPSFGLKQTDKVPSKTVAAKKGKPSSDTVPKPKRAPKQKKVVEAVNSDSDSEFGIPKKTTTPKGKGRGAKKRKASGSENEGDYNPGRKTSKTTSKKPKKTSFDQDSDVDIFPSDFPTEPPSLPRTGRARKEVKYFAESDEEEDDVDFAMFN

binding [1]: no binding
binding [2]: no binding
Substance: topoisomerase IIβ (endogenous) (from UniProt Q02880 1-1626) (enzyme)
